Source: paper PMC10940461
Results are given in words; binding and its absence hold for the method and conditions named. In cells and extracts the contact can be indirect. Some binding calls cover weakened binding; strength is not graded here.

Amino acid sequences for entries named in this document (tags omitted).
UniProt P20263: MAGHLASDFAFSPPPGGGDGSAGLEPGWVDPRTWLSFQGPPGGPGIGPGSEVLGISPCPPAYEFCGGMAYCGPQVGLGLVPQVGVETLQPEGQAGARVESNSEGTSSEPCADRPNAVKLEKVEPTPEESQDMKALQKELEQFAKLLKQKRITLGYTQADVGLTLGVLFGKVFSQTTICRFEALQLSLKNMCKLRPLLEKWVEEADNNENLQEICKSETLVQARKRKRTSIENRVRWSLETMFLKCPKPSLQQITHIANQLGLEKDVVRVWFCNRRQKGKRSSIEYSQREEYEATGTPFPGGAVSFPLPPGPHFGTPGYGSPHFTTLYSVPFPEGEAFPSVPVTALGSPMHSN

How the values were obtained:
[1] = biological target: Oct4 (endogenous, mouse iPSCs) (mouse (endogenous in mouse iPSCs)) (UniProt P20263); experiment: proximity ligation; in situ PLA (Duolink kit) on fixed, permeabilised WT iPSCs and RA-induced differentiated cells; endogenous proteins, distances < 40 nm
[2] = biological target: Oct4 (endogenous, mouse iPSCs) (mouse (endogenous in mouse iPSCs)) (UniProt P20263); experiment: co-IP; lysates of WT iPSCs, undifferentiated and during RA-induced differentiation (LIF withdrawal, RA), immunoprecipitated with anti-Oct4 antibody and probed with anti-Txnip or anti-Oct4 antibody; Txnip KO iPSCs as control

B1: Txnip (thioredoxin interacting protein; endogenous, mouse iPSCs) (protein, UniProt Q8BG60 1-397)
chain: MVMFKKIKSFEVVFNDPEKVYGSGEKVAGRVIVEVCEVTRVKAVRILACGVAKVLWMQGSQQCKQTLDYLRYEDTLLLEEQPTAGENEMVIMRPGNKYEYKFGFELPQGPLGTSFKGKYGCVDYWVKAFLDRPSQPTQEAKKNFEVMDLVDVNTPDLMAPVSAKKEKKVSCMFIPDGRVSVSARIDRKGFCEGDDISIHADFENTCSRIVVPKAAIVARHTYLANGQTKVFTQKLSSVRGNHIISGTCASWRGKSLRVQKIRPSILGCNILKVEYSLLIYVSVPGSKKVILDLPLVIGSRSGLSSRTSSMASRTSSEMSWIDLNIPDTPEAPPCYMDIIPEDHRLESPTTPLLDDVDDSQDSPIFMYAPEFQFMPPPTYTEVDPCVLNNNNNNNNVQ
[1]
  binding: binds
[2]
  binding: binds
